Experimental data as given in the supplement of paper PMC11006884.
The list shows a part of the results, in another mix than the full data.

Protein sequences, listed by entry. Tags and fused reporters are not part of them. Lines headed by an entry give the natural chain unless they say otherwise; changes in a name come on top.
UniProt O14980, whole entry, looked up: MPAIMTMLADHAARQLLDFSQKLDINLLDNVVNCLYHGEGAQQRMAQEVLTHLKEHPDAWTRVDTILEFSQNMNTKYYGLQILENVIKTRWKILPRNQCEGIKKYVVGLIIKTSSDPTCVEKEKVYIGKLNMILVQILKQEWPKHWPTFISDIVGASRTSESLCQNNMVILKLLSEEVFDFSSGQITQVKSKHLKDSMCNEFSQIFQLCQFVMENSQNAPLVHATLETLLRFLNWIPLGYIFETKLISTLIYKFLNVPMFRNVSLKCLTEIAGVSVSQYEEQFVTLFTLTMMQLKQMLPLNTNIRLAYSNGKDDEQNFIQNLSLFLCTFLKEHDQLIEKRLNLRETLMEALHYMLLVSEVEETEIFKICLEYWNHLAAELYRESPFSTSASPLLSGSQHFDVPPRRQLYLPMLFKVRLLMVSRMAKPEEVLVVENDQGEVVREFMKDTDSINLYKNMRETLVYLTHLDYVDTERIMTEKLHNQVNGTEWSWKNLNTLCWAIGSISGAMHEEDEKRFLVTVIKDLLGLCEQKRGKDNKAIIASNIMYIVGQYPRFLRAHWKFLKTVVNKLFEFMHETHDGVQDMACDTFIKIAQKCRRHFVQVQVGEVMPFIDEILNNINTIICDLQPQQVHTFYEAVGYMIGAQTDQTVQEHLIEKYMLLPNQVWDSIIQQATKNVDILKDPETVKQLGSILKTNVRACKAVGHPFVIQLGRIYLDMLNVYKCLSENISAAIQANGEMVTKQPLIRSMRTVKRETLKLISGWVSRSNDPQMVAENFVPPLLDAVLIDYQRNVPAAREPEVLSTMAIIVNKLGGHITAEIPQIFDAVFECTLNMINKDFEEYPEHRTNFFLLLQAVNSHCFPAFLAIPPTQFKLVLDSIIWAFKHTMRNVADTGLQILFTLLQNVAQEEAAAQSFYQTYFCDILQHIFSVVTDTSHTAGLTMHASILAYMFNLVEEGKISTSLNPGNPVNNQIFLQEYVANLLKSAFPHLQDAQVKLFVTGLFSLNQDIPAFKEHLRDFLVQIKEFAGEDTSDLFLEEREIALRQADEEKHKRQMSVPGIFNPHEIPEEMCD
UniProt O14757: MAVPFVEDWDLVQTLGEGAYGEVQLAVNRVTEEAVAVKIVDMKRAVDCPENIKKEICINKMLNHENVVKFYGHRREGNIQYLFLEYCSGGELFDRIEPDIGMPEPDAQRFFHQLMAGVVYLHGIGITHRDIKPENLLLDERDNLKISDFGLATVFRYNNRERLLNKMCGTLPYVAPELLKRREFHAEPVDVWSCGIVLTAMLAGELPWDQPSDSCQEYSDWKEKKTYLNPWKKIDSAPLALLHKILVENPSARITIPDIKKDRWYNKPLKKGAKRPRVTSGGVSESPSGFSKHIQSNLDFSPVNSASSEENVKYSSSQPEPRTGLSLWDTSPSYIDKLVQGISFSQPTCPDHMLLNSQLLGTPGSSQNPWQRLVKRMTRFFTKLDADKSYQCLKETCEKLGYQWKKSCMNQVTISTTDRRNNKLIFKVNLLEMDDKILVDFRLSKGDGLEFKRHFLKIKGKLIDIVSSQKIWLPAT
UniProt O00303, whole entry: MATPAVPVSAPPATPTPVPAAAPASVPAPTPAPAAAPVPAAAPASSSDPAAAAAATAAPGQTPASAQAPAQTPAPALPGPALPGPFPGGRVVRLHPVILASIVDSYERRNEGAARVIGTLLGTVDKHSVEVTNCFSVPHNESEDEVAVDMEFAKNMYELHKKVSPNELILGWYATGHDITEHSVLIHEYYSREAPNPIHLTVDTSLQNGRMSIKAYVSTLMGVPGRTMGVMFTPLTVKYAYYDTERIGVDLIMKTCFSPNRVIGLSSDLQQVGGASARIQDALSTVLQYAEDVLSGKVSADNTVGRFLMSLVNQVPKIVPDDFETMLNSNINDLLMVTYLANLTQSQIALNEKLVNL
UniProt O00567: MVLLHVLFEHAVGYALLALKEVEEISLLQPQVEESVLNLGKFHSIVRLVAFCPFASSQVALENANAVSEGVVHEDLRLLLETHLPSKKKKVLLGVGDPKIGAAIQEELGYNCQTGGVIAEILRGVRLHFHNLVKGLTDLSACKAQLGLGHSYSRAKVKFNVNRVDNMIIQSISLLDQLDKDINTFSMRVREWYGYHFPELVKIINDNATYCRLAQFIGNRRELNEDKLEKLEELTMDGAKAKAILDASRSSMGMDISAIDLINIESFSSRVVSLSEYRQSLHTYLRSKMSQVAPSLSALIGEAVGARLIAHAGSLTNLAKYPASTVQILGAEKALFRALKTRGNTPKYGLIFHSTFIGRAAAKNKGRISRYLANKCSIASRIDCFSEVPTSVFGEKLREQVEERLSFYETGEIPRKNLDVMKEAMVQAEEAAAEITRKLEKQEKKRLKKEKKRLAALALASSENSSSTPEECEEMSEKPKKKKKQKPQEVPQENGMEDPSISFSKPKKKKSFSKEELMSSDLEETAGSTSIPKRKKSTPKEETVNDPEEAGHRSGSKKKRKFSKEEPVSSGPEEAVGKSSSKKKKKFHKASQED
UniProt O00244: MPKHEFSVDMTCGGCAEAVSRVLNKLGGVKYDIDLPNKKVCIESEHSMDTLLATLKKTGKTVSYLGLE
UniProt O00483, whole entry: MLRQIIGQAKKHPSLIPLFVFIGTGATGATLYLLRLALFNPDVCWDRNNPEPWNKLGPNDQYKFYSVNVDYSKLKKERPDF
UniProt O00571: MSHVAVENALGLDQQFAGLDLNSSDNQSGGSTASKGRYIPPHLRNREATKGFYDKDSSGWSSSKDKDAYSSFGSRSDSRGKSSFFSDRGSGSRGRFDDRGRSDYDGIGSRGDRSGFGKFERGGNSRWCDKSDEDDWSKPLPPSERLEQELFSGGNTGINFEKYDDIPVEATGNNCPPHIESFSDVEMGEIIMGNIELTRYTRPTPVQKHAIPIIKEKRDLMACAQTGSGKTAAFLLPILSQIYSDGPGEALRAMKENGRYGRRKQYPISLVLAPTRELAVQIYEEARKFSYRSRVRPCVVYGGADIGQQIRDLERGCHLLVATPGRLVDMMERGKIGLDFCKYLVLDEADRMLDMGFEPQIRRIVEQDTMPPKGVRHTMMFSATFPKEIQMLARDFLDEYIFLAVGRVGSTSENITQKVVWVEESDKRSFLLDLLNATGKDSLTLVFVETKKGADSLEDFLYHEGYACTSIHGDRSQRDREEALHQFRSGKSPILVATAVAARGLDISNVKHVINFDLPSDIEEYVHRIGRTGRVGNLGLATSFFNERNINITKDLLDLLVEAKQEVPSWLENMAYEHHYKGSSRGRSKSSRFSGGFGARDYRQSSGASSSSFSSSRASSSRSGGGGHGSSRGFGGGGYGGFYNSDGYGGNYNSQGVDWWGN
UniProt O14893: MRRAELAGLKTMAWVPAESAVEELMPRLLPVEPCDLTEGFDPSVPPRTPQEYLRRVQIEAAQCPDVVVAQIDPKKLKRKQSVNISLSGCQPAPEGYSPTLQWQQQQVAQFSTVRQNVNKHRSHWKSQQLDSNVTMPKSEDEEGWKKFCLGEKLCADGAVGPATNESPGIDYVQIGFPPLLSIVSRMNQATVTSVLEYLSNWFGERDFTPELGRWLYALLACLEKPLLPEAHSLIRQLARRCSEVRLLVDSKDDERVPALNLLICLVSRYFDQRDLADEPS
UniProt O43149: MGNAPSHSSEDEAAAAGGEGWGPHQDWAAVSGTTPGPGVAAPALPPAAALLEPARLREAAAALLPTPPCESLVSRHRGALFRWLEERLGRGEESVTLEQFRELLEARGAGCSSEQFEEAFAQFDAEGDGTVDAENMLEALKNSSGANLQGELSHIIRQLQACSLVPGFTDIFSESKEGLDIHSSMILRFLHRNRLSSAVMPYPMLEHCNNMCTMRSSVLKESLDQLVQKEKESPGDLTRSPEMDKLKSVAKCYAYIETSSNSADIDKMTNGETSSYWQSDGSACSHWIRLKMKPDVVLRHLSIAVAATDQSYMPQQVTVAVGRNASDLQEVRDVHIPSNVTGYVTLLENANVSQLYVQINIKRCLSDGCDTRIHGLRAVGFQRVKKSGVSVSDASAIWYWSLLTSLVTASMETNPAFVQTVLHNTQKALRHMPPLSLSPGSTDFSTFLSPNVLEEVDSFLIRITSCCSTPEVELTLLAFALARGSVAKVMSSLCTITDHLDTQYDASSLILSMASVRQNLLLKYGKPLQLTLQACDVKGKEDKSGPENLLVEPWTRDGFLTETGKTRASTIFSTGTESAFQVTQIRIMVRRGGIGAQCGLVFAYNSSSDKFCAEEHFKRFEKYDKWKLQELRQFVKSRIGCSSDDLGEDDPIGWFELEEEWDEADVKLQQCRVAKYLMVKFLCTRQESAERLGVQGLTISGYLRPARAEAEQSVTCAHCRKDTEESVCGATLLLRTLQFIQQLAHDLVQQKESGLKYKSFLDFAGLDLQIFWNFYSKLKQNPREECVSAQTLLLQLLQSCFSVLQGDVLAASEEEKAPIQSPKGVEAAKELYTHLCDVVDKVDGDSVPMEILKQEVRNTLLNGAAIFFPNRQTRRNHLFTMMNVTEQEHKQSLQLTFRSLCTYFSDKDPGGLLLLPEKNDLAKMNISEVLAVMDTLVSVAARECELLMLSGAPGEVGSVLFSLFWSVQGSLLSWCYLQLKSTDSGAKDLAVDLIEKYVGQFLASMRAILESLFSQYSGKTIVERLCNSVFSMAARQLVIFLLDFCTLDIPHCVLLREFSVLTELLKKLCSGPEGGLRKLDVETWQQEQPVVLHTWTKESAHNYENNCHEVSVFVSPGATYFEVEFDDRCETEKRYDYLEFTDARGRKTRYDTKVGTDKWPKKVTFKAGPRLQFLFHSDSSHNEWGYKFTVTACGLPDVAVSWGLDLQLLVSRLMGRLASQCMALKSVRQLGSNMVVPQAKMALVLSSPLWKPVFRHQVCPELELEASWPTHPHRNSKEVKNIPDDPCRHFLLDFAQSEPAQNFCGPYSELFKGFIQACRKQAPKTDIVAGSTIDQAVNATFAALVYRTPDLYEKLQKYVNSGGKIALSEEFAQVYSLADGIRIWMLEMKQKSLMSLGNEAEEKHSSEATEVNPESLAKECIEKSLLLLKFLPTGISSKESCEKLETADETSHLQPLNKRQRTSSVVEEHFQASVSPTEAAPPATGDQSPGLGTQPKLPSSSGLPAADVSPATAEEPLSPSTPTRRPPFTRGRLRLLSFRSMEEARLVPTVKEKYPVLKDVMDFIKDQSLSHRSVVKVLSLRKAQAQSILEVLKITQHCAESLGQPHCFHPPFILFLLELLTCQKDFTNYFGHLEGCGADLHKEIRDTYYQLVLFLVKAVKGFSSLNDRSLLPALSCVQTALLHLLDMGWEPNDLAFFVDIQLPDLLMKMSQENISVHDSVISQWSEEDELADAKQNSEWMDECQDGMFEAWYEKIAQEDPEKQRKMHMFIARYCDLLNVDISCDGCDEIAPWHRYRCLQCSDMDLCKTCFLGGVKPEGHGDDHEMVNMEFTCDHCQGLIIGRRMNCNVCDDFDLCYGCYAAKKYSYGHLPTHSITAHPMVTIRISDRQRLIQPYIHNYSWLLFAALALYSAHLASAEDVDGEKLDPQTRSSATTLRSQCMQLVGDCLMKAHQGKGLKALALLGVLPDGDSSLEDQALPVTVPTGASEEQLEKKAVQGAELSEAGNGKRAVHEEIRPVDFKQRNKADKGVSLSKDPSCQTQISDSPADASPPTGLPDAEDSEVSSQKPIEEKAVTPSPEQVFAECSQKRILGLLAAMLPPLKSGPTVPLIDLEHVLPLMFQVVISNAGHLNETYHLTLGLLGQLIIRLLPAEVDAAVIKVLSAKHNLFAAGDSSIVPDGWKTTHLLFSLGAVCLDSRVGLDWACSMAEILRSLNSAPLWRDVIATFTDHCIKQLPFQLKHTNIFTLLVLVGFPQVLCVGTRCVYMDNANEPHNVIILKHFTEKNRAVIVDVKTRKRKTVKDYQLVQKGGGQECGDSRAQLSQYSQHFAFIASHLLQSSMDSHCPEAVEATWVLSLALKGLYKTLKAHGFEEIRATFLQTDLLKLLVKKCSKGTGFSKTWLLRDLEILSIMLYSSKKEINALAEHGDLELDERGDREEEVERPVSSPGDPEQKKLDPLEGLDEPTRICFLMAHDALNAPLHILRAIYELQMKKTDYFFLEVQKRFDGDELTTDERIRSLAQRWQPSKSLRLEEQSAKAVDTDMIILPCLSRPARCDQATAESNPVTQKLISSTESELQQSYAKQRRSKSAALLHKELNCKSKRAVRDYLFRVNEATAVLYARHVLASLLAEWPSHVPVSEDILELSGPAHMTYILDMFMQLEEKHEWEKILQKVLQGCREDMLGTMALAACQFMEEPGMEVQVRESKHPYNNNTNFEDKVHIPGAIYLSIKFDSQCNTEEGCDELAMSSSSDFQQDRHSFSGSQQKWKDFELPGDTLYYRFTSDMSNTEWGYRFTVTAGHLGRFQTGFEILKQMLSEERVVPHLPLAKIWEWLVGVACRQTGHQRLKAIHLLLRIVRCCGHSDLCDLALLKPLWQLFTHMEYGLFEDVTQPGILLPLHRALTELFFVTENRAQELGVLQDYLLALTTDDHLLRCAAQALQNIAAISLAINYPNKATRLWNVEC

These targets were tested with COC(=O)C#Cc1ccccc1 [methyl 3-phenylpropiolate] (assay: log2 ratio of iodoacetamide-alkyne labeling of the cysteine site, DMSO over compound (competition); higher = stronger covalent engagement of the cysteine by the compound, active = 1 or more). Conditions: 500 µM; treatment time 1 h; system: HEK293T cell lysate.
Outline: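 Reporter intensities give each cysteine's log2 competition ratio as the mean of control channels over the mean of compound channels. The samples were HEK293T lysate (2 mg/mL) given vehicle or electrophile (500 µM, 1 h, ambient temperature), then iodoacetamide alkyne (1 h), followed by click coupling to sCIP-TMT reagents, pooling, trypsin digestion overnight at 37 °C, streptavidin enrichment, acid elution, Orbitrap Eclipse LC-MS/MS with FAIMS and FragPipe quantification. Duplicate channels and three replicates were run, and cysteines quantified in only one replicate were discarded.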

| Target | log2 ratio of iodoacetamide-alkyne labeling |
| --- | --- |
| CLIC1 C59 (UniProt O00299) | inactive: 0.138 |
| WDR46 C172 (UniProt O15213) | inactive: 0.382 |
| XPO1 C829 (UniProt O14980) | inactive: 0.057 |
| UniProt O14618_C227 | inactive: 0.371 |
| POLRMT C765 (UniProt O00411) | inactive: 0.547 |
| UniProt O14757_C168 | inactive: 0.157 |
| PDLIM1 C283 (UniProt O00151) | inactive: 0.0356 |
| EIF3D C195 (UniProt O15371) | inactive: 0.141 |
| EIF3F C256 (UniProt O00303) | inactive: 0.365 |
| IGF2BP3 C546 (UniProt O00425) | inactive: 0.284 |
| IPO5 C110 (UniProt O00410) | inactive: 0.471 |
| WASL C431 (UniProt O00401) | active: 1.06 |
| UniProt O00567_C112 | inactive: 0.726 |
| DVL2 C412 (UniProt O14641) | inactive: 0.134 |
| PMM2 C103 (UniProt O15305) | inactive: -0.0926 |
| PRPF4 C237 (UniProt O43172) | active: 1.42 |
| UniProt O00567_C142 | inactive: 0.498 |
| ATOX1 C12 (UniProt O00244) | active: 1.27 |
| NDUFA4 C44 (UniProt O00483) | inactive: 0.0834 |

2 successive records from above, quoted:

| Target | log2 ratio of iodoacetamide-alkyne labeling |
| --- | --- |
| UniProt O00567_C112 | inactive: 0.726 |
| DVL2 C412 (UniProt O14641) | inactive: 0.134 |

Continuation.

| Target | log2 ratio of iodoacetamide-alkyne labeling |
| --- | --- |
| DHX15 C174 (UniProt O43143) | inactive: 0.157 |
| DDX3X C341 (UniProt O00571) | inactive: 0.091 |
| DNM1L C446 (UniProt O00429) | inactive: 0.102 |
| UniProt O15042_C291 | active: 1 |
| PSMD12 C31 (UniProt O00232) | inactive: 0.285 |
| UniProt O00487_C238 | inactive: 0.531 |
| UniProt O00567_C384 | inactive: -0.084 |
| PHGDH C19 (UniProt O43175) | inactive: -0.27 |
| PGRMC2 C159 (UniProt O15173) | inactive: 0.159 |
| UniProt O15111_C406 | inactive: 0.267 |
| GEMIN2 C89 (UniProt O14893) | inactive: 0.0396 |
| DFFA C38 (UniProt O00273) | inactive: 0.349 |
| UniProt O14733_C360 | inactive: -0.0389 |
| PFAS C606 (UniProt O15067) | active: 1.53 |
| NKRF C424 (UniProt O15226) | inactive: 0.422 |
| DDX3X C298 (UniProt O00571) | inactive: 0.414 |
| PJA2 C224 (UniProt O43164) | inactive: 0.22 |
| ZZEF1 C162 (UniProt O43149) | inactive: 0.261 |
